Consider six molecules from PMC4980433 (Molecular Cell, 2016).

Results are given in words; binding and its absence hold for the method and conditions named. For some of these results: Binding seen in cells or lysates may run through a third protein. Some entries that bind do so weakly or less than the wild type. For some of these results: Where a sequence is shown, tags or fusion partners need not be part of it.

Assay [1] has as its target FLAG3-TNKS, wild type, full length (human) (UniProt O95271). The experiment in a line: co-IP; HEK293T cells transfected with FLAG3- and MYC2-Tankyrases; WT FLAG3-Tankyrase precipitated with anti-FLAG M2 affinity gel; MYC2-Tankyrases detected by western blot. In general terms: A western blot detects proteins with antibodies after separation by electrophoresis.
The target in assay [2] is TNKS SAM V1056W (human) (UniProt O95271). The experiment in a line: ITC; EH mutant (TNKS2 SAM Y920A or TNKS SAM Y1073A, 500 μM) injected in 2-μl increments into ML mutant (TNKS2 SAM V903W or TNKS SAM V1056W, 50 μM); binding buffer with 200 mM NaCl; one-site binding model; both purified. (In ITC the heat of successive injections is recorded.)
Assay [3] concerns the target T1, FLAG3-TNKS, wild type, full length (human), O95271.
T1 chain: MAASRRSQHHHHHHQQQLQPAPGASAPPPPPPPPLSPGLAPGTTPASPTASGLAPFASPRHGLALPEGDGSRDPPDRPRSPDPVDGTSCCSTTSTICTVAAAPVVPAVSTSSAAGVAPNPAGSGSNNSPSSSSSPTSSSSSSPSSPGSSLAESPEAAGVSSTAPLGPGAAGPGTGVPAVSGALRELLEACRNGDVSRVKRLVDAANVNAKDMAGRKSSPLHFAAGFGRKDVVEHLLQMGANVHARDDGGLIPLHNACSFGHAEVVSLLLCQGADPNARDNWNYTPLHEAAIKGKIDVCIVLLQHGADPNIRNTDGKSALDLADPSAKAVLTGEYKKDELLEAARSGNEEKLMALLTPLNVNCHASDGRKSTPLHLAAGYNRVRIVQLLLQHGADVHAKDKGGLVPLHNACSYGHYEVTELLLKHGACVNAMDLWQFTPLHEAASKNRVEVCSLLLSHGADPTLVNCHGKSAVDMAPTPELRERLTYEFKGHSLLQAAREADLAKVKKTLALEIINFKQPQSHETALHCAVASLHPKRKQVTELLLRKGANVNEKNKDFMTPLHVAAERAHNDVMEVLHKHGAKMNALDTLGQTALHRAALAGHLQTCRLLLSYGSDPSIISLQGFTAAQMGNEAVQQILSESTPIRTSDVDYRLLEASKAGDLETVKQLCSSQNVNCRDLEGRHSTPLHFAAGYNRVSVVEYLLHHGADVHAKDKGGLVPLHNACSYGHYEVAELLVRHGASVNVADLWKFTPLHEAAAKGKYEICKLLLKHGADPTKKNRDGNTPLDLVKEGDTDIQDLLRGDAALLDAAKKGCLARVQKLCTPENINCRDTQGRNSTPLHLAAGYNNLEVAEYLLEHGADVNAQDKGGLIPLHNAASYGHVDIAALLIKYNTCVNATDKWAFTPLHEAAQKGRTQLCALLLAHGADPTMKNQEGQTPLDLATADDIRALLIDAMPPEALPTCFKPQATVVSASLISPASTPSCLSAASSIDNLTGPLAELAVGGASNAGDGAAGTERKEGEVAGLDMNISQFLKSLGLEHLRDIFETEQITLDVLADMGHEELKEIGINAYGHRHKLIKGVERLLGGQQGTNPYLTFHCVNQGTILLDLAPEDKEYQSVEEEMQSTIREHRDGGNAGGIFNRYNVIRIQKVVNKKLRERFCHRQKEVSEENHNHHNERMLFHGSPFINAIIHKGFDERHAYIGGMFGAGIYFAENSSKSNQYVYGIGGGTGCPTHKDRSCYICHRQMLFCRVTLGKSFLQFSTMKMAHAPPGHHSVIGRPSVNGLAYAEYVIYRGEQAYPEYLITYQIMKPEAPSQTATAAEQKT
The experiment in a line: co-IP; HEK293T cells transfected with FLAG3- and MYC2-Tankyrases; WT FLAG3-Tankyrase precipitated with anti-FLAG M2 affinity gel; MYC2-Tankyrases detected by western blot. As to conditions: remark: other sources report otherwise.

Assay [4] has as its target T2, MYC2-TNKS, wild type, full length (human), O95271.
T2 chain: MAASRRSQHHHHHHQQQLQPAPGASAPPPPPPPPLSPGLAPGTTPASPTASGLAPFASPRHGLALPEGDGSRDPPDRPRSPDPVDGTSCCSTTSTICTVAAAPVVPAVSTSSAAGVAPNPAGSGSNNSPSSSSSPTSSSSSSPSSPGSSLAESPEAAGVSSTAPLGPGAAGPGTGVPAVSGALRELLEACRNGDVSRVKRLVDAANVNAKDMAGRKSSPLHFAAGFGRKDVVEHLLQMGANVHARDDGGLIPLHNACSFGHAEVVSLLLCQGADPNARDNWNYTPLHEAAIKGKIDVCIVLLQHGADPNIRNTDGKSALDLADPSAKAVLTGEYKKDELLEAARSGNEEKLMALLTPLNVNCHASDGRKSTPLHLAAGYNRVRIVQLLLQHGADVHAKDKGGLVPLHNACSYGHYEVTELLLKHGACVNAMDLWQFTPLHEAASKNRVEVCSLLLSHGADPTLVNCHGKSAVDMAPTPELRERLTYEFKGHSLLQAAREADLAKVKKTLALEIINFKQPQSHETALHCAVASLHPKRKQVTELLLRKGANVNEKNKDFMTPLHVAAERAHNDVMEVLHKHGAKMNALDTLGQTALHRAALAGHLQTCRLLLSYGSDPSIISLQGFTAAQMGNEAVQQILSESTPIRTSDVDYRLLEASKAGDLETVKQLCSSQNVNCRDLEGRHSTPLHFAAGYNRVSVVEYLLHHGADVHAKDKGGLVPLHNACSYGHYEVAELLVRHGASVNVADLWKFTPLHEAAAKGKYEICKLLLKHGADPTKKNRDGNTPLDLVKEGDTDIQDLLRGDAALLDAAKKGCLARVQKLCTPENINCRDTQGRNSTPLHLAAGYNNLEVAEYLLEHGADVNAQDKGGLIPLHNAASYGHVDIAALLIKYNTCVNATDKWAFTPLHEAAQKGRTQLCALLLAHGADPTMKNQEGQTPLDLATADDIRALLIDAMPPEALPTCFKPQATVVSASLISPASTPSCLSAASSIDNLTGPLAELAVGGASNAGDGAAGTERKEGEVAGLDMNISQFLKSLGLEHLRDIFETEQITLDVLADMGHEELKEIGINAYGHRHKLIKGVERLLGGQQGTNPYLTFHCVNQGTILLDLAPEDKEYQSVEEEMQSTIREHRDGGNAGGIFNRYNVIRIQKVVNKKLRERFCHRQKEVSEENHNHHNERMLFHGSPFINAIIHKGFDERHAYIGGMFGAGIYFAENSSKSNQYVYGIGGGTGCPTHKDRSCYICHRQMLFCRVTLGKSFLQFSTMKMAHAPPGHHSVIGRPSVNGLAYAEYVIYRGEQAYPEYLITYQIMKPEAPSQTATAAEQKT
The experiment in a line: SEC; gel filtration (fractionation) of cell lysates, Figure S6A; cells and tags not shown. As to conditions: remark: other sources report otherwise. In general terms: In gel filtration, larger molecules generally elute earlier.

Take “MYC2-TNKS V1056W, full length (from UniProt O95271 1-1327) (enzyme)”: the binding entry in assay [1] is given as “binds”. The same measure, in the same setting: the entry for “MYC2-TNKS VY1056/1073WA, full length (from UniProt O95271 1-1327) (enzyme)” is “no binding”; for “MYC2-TNKS Y1073A, full length (from UniProt O95271 1-1327) (enzyme)” it is “binds”.

“TNKS SAM Y1073A (from UniProt O95271 1018-1093) (domain or fragment)”: the binding entry in assay [2] is “binds”.

“TNKS T1049R, full length (from UniProt O95271 1-1327) (enzyme)”: the binding result in assay [1] was “binds”.

B1: MYC2-TNKS, wild type, full length, O95271 1-1327 (enzyme)
chain: MAASRRSQHHHHHHQQQLQPAPGASAPPPPPPPPLSPGLAPGTTPASPTASGLAPFASPRHGLALPEGDGSRDPPDRPRSPDPVDGTSCCSTTSTICTVAAAPVVPAVSTSSAAGVAPNPAGSGSNNSPSSSSSPTSSSSSSPSSPGSSLAESPEAAGVSSTAPLGPGAAGPGTGVPAVSGALRELLEACRNGDVSRVKRLVDAANVNAKDMAGRKSSPLHFAAGFGRKDVVEHLLQMGANVHARDDGGLIPLHNACSFGHAEVVSLLLCQGADPNARDNWNYTPLHEAAIKGKIDVCIVLLQHGADPNIRNTDGKSALDLADPSAKAVLTGEYKKDELLEAARSGNEEKLMALLTPLNVNCHASDGRKSTPLHLAAGYNRVRIVQLLLQHGADVHAKDKGGLVPLHNACSYGHYEVTELLLKHGACVNAMDLWQFTPLHEAASKNRVEVCSLLLSHGADPTLVNCHGKSAVDMAPTPELRERLTYEFKGHSLLQAAREADLAKVKKTLALEIINFKQPQSHETALHCAVASLHPKRKQVTELLLRKGANVNEKNKDFMTPLHVAAERAHNDVMEVLHKHGAKMNALDTLGQTALHRAALAGHLQTCRLLLSYGSDPSIISLQGFTAAQMGNEAVQQILSESTPIRTSDVDYRLLEASKAGDLETVKQLCSSQNVNCRDLEGRHSTPLHFAAGYNRVSVVEYLLHHGADVHAKDKGGLVPLHNACSYGHYEVAELLVRHGASVNVADLWKFTPLHEAAAKGKYEICKLLLKHGADPTKKNRDGNTPLDLVKEGDTDIQDLLRGDAALLDAAKKGCLARVQKLCTPENINCRDTQGRNSTPLHLAAGYNNLEVAEYLLEHGADVNAQDKGGLIPLHNAASYGHVDIAALLIKYNTCVNATDKWAFTPLHEAAQKGRTQLCALLLAHGADPTMKNQEGQTPLDLATADDIRALLIDAMPPEALPTCFKPQATVVSASLISPASTPSCLSAASSIDNLTGPLAELAVGGASNAGDGAAGTERKEGEVAGLDMNISQFLKSLGLEHLRDIFETEQITLDVLADMGHEELKEIGINAYGHRHKLIKGVERLLGGQQGTNPYLTFHCVNQGTILLDLAPEDKEYQSVEEEMQSTIREHRDGGNAGGIFNRYNVIRIQKVVNKKLRERFCHRQKEVSEENHNHHNERMLFHGSPFINAIIHKGFDERHAYIGGMFGAGIYFAENSSKSNQYVYGIGGGTGCPTHKDRSCYICHRQMLFCRVTLGKSFLQFSTMKMAHAPPGHHSVIGRPSVNGLAYAEYVIYRGEQAYPEYLITYQIMKPEAPSQTATAAEQKT
As to B1, the binding entry in assay [3] and in assay [4] was “binds” each time.
